Taken from: PubChem BioAssay AID743121 (NCATS, 2013)
Aim: 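Knock-downs that sensitise breast cancer cells to camptothecin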 (primary screen). Cells: MDA-MB-231 cells, a human breast cancer line. Reagent: single siRNA against human genes, 20 nM siRNA (0.8 pmol per well). Time to read-out: 120 h (drug added 48 h after transfection, read 72 h later). Conditions: camptothecin 20 nM (about EC30) for 72 h; vehicle 0.1% DMSO in parallel plates. Detection: 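CellTiter-Glo ATP signal, scaled to control siRNA as percent viability; sensitisation given as log2 of untreated divided by camptothecin-treated viability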. Scale: log2 vehicle/camptothecin viability: higher = stronger sensitisation to camptothecin; viability with camptothecin and viability without drug: higher = more viable cells. Active means: 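Each gene scored by redundant siRNA activity (RSA) over its individual siRNA ratios; a gene is called active at p < 0.001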.
In all, the deposit lists about 26,000 reagents; this is a part drawn at random. In the full data, 167 (0.63%) are marked active. 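Calls are per gene from RSA p-values that are not deposited; an individual active-marked siRNA can sensitise only weakly.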 Unmarked entries are inactive. The numbers tell different reagents against one gene apart. Reagent sequences are not shown.

| gene symbol | reagent no. | log2 vehicle/camptothecin viability | viability with camptothecin (% of control) | viability without drug (% of control) |
| --- | --- | --- | --- | --- |
| LPO (lactoperoxidase) | 1 | 0.0344 | 75.5 | 77.3 |
| LPO (lactoperoxidase) | 2 | -0.0446 | 89 | 86.3 |
| LPO (lactoperoxidase) | 3 | -0.31 | 102 | 82.6 |
| LPO (lactoperoxidase) | 4 | -0.201 | 68.1 | 59.2 |
| DDR2 (discoidin domain receptor tyrosine kinase 2) | 1 | 0.00396 | 73 | 73.2 |
| DDR2 (discoidin domain receptor tyrosine kinase 2) | 2 | -0.404 | 88.4 | 66.8 |
| DDR2 (discoidin domain receptor tyrosine kinase 2) | 3 | 0.0589 | 89.9 | 93.7 |
| DDR2 (discoidin domain receptor tyrosine kinase 2) | 4 | -0.199 | 86.5 | 75.3 |
| KLK11 (kallikrein related peptidase 11) | 1 | -0.437 | 98.4 | 72.7 |
| KLK11 (kallikrein related peptidase 11) | 2 | -0.369 | 84.4 | 65.3 |
| KLK11 (kallikrein related peptidase 11) | 3 | 0.241 | 84.7 | 100 |
| KLK11 (kallikrein related peptidase 11) | 4 | -0.0634 | 68 | 65.1 |
| MORN3 (MORN repeat containing 3) | 1 | -0.126 | 84.9 | 77.8 |
| MORN3 (MORN repeat containing 3) | 2 | -0.191 | 96.2 | 84.3 |
| MORN3 (MORN repeat containing 3) | 3 | -0.377 | 70.9 | 54.6 |
| MORN3 (MORN repeat containing 3) | 4 | 0.494 | 59.7 | 84.1 |
| ACADM (acyl-CoA dehydrogenase medium chain) | 1 | -0.0594 | 94.4 | 90.6 |
| ACADM (acyl-CoA dehydrogenase medium chain) | 2 | -0.112 | 125 | 116 |
| ACADM (acyl-CoA dehydrogenase medium chain) | 3 | -0.207 | 120 | 104 |
| AIP (AHR interacting HSP90 co-chaperone) | 1 | -0.258 | 99.2 | 83 |
| AIP (AHR interacting HSP90 co-chaperone) | 2 | -0.445 | 83.6 | 61.4 |
| AIP (AHR interacting HSP90 co-chaperone) | 3 | -0.194 | 97.5 | 85.2 |
| GSS (glutathione synthetase) | 1 | 0.0969 | 95.3 | 102 |
| GSS (glutathione synthetase) | 2 | -0.124 | 83.4 | 76.5 |
| GSS (glutathione synthetase) | 3 | -0.164 | 92.6 | 82.6 |
| KCNN4 (potassium calcium-activated channel subfamily N member 4) | 1 | -0.182 | 91.6 | 80.8 |
| KCNN4 (potassium calcium-activated channel subfamily N member 4) | 2 | -0.278 | 78.5 | 64.8 |
| KCNN4 (potassium calcium-activated channel subfamily N member 4) | 3 | 0.0779 | 57.6 | 60.8 |

5 entries from above, set out differently:
{"gene symbol":"LPO (lactoperoxidase)","reagent no.":1,"log2 vehicle/camptothecin viability":0.0344,"viability with camptothecin (% of control)":75.5,"viability without drug (% of control)":77.3}
{"gene symbol":"LPO (lactoperoxidase)","reagent no.":2,"log2 vehicle/camptothecin viability":-0.0446,"viability with camptothecin (% of control)":89,"viability without drug (% of control)":86.3}
{"gene symbol":"LPO (lactoperoxidase)","reagent no.":3,"log2 vehicle/camptothecin viability":-0.31,"viability with camptothecin (% of control)":102,"viability without drug (% of control)":82.6}
{"gene symbol":"LPO (lactoperoxidase)","reagent no.":4,"log2 vehicle/camptothecin viability":-0.201,"viability with camptothecin (% of control)":68.1,"viability without drug (% of control)":59.2}
{"gene symbol":"DDR2 (discoidin domain receptor tyrosine kinase 2)","reagent no.":1,"log2 vehicle/camptothecin viability":0.00396,"viability with camptothecin (% of control)":73,"viability without drug (% of control)":73.2}
